At least one structure is not confirmed: it was looked up by name or label, or the drawing left a doubt.
Tests used:
[1] = system: IL-6; assay: IL-6 production by NHEKs in the inflammatory state (PMA + calcium ionophore, 0.8 mM Ca2+), ELISA; format: cell-based, human; conditions: PMA + calcium ionophore A23187, 0.8 mM Ca2+, compounds 50 μM, dexamethasone 10 μM, relative to induced control
Description: (§1) The study was carried out on Normal Human Epidermal Keratinocytes (NHEKs) (Lonza, CC-2507, origin: foreskin) in monolayer culture in Epilife medium (Invitrogen, M-EPI-500-A) containing the components of the Human Keratinocyte Growth Supplement (HKGS) mixture (Invitrogen, S-001-K) added separately, except hydrocortisone having anti-inflammatory properties.
(§2) For the quantification of IL-8 and PGE2, the inflammatory state of the NHEKs in culture was induced by treatment with PMA (phorbol myristate acetate/10 ng/ml/H2O) for 24 h. […]
(§3) Quantification of the various inflammatory mediators was carried out with specific kits, based on a standard curve, according to the instructions provided by the kits' suppliers, R&D Systems and Cayman Chemical.
(§4) Before induction of the inflammatory state, the NHEKs were treated with the compounds and reference molecules for 2 h. The inflammatory state was then induced according to the conditions described in the methodology section, the culture supernatants were collected, and the various inflammatory mediators were quantified by the ELISA technique.
The effect of the compounds on IL-6 production by NHEKs in the inflammatory state is shown in FIG. 6 and is expressed as a percentage of the treatment with PMA combined with calcium ionophore A23187 (under high-calcium conditions: 0.8 mM Ca2+).

[2] = system: TNF-α; assay: TNF-α production by NHEKs in the inflammatory state (PMA + calcium ionophore, 0.06 mM Ca2+), ELISA; format: cell-based, human; conditions: PMA + calcium ionophore A23187 24 h, compounds 50 μM, dexamethasone 10 μM, relative to induced control
Description: as §1
as §2, with “h. Induction of IL-6 was achieved by treatment with PMA (10 ng/ml/H2O) combined with calcium ionophore A23187 (2 μM/DMSO) in medium containing calcium at a concentration of 0.8 mM.” for “h.”
as §3
as §4, with “technique. […]” for “technique.”

[3] = system: Normal Human Epidermal Keratinocytes (NHEKs); assay: Microscopic observation of NHEK cell survival 48 h after inflammatory treatment; format: cell-based; conditions: NHEK cultures 48 h after inflammatory treatment; summary in words
Description: The cells, treated and not treated by the compounds to be tested, were observed under an optical microscope 48 h after the following inflammatory treatment: 10 ng/mL PMA/H2O+2 μM calcium ionophore A23187/DMSO.
NHEKs were brought into contact or not with the compounds to be tested. After 2 h, the cells underwent or not an inflammation treatment (10 ng/mL PMA/H2O+2 μM calcium ionophore A23187/DMSO).
The cells were observed under an optical microscope 48 h after the inflammatory treatment.

[4] = system: IL-8; assay: IL-8 production by NHEKs in the inflammatory state (PMA), ELISA; format: cell-based, human; conditions: PMA 10 ng/ml 24 h, compounds 50 μM, dexamethasone 10 μM, relative to PMA induced control (100%)
Description: as §1
as §2, with “h. Induction of IL-6 was achieved by treatment with PMA (10 ng/ml/H2O) combined with calcium ionophore A23187 (2 μM/DMSO) in medium containing calcium at a concentration of 0.8 mM.” for “h.”
as §3
as §4, with “technique. […]” for “technique.”

C[C@@H]1C[C@H]2[C@@H]3CCC4=CC(=O)C=C[C@]4(C)[C@@]3(F)[C@@H](O)C[C@]2(C)[C@@]1(O)C(=O)CO [dexamethasone, reference compound]
IL-6 production [1]: inhibits this IL-6 production in a very highly significant manner
TNF-α production [2]: very highly significant inhibitory effect
effect on cell survival / cellular protection against inflammation [3]: little or no effect on cell survival
IL-8 production [4]: very highly significant inhibitory effect

Source: US10786690B2, “Amide derivatives of polycaffeoylquinic acids, process for producing same and uses thereof” (TEMISIS, priority 2016, dated 2020)
